# Results: US10124111B2, “Small molecule dye for molecular imaging and photothermal therapy” (The Board of Trustees of the Leland Stanford Junior …, priority 2015, dated 2018)
# Experiment: NIR-II fluorescence brightness and quantum yield in DI, PBS, FBS, serum and serum proteins
# Assay type: physicochemical
# Source text: The compound contains a taurine (2-aminoethanesulfonic acid) group at the carboxyl linkers of CH1055. […] Sulfonating the present NIR-II dyes is a general procedure that can be applied to a number of the NIR-II small molecules described above to increase their solubility.
# The absorbance value of both fluorophores (OD 0.02) in each respective media is equivalent at the excitation wavelength (808 nm) to compare relative quantum yields. NIR-IIa fluorescent image of a C57 mouse brain (1300 LP) after an intravenous injection of equivalent doses of CH-4T (200 ms exposure; Panel B) and of CH1055-PEG (1 s exposure; Panel D). The image intensity scales have been compensated to account for the differences in the exposure times needed to clearly resolve brain vasculature.
# This fluorescence enhancement produces a serum quantum yield of up to ˜10% which is on par with ICG and is among the highest quantum yields of all NIR-II fluorophores (including carbon nanotubes). While soluble in PBS, the quantum yield of CH-4T was determined to be ˜0.07%, yet is enhanced ˜60× through complexation with serum proteins in FBS.
# Increased brightening of CH-4T also results from protein interactions. A fluorescence emission spectrum of CH1055-PEG and CH-4T in both FBS and PBS was determined. […] The increased intensity (40,000 a.u. around 1000 nm) for CH-4T in FBS was observed. […]
structure (smiles),measurement,setting,value
O=C(CCc1ccc(N(c2ccc(CCC(=O)NCCS(=O)(=O)O)cc2)c2ccc(-c3c4c(c(-c5ccc(N(c6ccc(CCC(=O)NCCS(=O)(=O)O)cc6)c6ccc(CCC(=O)NCCS(=O)(=O)O)cc6)cc5)c5nsnc35)N=S=N4)cc2)cc1)NCCS(=O)(=O)O [CH-4T],quantum yield enhancement through complexation with serum proteins,FBS versus PBS,~60 ×
same,quantum yield relative to carbon nanotubes,with treated FBS,30 ×
